Test [1] concerns the target ClpC1-Δ3 (N-terminal truncated mutant, both N-terminal domains deleted) (Mycobacterium tuberculosis H37Rv) (UniProt P9WPC9). In words: SEC; Superdex-200 (1×30 cm) in buffer A (50 mM Tris-HCl pH 7.6, 100 mM KCl, 5 mM DTT, 10% glycerol, 0.01% Triton X-100), in the absence of ATP and MgCl2; fractions checked by SDS-PAGE; both purified. (In general: SEC sorts molecules by how far they enter the pores of the column.)

By UniProt entry, the sequences of proteins in these tests, tags left out. Where a name states a change or a piece, a line headed by the entry shows the natural chain unless it says otherwise. Residues count along the entry.
UniProt P9WPC9, 1-670, stated change not applied: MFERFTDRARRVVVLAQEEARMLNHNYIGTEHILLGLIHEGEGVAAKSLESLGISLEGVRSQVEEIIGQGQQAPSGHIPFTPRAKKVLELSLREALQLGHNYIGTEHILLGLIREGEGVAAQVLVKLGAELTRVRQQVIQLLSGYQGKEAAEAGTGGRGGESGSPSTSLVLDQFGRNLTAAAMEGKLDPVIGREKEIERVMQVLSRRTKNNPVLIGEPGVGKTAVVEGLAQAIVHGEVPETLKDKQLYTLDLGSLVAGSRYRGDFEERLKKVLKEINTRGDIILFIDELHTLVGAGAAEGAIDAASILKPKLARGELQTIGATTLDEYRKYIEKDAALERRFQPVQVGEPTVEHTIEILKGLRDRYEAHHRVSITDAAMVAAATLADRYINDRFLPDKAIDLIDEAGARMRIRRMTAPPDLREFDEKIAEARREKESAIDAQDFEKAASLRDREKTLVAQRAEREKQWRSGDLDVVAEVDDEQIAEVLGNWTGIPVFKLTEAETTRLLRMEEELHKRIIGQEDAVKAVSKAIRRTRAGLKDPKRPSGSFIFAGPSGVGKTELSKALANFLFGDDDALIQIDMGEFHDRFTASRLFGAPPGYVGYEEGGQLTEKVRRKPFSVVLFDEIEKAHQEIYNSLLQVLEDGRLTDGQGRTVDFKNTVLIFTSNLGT
UniProt P9WPC9, 1-704, stated change not applied: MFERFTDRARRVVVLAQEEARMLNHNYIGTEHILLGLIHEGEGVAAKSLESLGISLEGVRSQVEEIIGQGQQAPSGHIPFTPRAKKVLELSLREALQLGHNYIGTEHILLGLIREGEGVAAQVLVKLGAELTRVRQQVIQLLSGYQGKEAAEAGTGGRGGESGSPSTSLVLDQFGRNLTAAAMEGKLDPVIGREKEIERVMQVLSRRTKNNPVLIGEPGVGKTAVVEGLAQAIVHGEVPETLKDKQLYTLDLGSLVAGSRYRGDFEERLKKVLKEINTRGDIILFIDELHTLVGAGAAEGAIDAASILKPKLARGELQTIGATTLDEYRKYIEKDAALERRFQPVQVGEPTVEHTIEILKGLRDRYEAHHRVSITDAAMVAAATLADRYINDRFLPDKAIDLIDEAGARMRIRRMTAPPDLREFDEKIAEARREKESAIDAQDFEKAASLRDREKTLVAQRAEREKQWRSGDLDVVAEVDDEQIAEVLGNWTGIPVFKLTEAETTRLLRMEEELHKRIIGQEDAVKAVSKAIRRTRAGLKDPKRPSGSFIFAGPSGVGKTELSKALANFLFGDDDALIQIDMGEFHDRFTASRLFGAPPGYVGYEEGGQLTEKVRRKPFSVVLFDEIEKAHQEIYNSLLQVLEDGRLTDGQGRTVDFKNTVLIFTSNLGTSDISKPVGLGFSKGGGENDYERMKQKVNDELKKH
UniProt P9WPC9, 1-721, stated change not applied: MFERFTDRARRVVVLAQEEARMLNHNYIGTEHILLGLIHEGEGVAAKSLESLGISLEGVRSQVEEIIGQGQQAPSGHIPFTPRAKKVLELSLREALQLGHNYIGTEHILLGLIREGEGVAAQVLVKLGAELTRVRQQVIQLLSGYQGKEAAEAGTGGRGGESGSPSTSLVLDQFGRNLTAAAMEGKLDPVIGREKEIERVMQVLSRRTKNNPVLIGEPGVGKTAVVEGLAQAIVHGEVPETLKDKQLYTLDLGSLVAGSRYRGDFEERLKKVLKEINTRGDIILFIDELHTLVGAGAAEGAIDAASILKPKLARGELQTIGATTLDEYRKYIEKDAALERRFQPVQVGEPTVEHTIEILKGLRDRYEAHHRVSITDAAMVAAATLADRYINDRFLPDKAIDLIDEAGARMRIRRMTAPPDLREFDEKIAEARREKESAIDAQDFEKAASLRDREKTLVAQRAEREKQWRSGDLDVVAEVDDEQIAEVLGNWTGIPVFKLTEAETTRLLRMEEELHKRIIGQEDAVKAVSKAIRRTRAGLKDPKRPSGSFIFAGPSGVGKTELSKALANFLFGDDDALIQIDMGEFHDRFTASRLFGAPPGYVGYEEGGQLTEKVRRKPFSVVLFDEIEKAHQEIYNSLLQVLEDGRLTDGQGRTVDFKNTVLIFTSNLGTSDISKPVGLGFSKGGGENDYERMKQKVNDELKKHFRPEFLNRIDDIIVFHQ
UniProt P9WPC9, 1-746, stated change not applied: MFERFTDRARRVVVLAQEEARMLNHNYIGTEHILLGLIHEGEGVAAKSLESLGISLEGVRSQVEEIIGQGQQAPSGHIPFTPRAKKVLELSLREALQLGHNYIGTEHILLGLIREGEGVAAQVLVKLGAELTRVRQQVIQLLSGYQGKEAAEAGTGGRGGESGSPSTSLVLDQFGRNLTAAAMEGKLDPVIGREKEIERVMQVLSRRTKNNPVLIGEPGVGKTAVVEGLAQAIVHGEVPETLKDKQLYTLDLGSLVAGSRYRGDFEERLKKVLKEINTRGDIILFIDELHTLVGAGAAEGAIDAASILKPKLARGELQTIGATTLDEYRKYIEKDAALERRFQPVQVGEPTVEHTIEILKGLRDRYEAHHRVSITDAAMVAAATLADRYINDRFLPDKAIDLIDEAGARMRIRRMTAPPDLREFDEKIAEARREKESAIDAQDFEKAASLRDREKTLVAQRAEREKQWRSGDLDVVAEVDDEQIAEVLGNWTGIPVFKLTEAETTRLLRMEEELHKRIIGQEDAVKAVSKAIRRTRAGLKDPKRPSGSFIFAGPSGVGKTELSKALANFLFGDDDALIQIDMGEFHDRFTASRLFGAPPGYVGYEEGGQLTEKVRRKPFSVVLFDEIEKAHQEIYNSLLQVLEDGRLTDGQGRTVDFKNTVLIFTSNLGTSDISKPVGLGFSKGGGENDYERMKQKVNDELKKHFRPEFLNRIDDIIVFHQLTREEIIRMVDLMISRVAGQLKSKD
UniProt P9WPC9, 1-766, stated change not applied: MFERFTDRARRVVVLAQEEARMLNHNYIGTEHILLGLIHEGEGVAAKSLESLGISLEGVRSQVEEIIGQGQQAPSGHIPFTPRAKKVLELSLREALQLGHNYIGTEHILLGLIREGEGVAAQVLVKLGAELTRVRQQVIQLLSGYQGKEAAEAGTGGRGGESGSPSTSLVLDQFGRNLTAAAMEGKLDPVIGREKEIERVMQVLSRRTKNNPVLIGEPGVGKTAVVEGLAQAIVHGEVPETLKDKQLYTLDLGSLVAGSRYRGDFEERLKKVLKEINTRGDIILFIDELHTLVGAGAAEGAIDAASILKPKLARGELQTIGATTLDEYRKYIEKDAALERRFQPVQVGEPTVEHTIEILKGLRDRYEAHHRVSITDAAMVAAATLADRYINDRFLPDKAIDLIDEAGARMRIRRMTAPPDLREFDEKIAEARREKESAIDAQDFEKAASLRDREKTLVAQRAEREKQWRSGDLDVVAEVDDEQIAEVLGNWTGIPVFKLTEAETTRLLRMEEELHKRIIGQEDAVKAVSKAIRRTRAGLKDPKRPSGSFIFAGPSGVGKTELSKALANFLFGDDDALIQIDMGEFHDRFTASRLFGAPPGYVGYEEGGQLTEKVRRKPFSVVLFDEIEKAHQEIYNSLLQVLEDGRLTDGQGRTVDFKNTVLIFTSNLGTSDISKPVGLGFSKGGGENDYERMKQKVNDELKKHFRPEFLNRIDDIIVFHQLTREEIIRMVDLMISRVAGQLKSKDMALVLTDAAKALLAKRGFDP
UniProt P9WPC9, 1-786, stated change not applied: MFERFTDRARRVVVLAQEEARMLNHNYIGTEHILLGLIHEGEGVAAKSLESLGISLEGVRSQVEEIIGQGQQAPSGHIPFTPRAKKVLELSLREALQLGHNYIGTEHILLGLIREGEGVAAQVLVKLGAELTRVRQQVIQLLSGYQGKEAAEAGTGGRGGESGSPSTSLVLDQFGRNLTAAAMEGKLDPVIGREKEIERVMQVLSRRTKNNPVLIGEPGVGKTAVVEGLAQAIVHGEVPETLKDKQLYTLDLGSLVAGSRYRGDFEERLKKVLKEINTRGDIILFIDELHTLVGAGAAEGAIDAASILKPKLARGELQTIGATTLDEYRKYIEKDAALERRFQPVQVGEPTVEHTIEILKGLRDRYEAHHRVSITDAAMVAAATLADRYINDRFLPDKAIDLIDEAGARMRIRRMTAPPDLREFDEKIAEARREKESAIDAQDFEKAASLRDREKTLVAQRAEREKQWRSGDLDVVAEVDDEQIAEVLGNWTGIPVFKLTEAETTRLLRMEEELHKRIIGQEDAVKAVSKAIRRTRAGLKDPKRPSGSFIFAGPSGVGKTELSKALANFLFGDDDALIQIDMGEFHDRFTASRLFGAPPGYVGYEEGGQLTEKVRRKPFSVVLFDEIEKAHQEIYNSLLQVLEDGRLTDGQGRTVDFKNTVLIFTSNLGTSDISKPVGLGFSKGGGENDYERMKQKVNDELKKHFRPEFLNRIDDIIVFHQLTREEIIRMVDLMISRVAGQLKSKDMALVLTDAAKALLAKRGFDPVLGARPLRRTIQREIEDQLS
UniProt P9WPC9, 1-806, stated change not applied: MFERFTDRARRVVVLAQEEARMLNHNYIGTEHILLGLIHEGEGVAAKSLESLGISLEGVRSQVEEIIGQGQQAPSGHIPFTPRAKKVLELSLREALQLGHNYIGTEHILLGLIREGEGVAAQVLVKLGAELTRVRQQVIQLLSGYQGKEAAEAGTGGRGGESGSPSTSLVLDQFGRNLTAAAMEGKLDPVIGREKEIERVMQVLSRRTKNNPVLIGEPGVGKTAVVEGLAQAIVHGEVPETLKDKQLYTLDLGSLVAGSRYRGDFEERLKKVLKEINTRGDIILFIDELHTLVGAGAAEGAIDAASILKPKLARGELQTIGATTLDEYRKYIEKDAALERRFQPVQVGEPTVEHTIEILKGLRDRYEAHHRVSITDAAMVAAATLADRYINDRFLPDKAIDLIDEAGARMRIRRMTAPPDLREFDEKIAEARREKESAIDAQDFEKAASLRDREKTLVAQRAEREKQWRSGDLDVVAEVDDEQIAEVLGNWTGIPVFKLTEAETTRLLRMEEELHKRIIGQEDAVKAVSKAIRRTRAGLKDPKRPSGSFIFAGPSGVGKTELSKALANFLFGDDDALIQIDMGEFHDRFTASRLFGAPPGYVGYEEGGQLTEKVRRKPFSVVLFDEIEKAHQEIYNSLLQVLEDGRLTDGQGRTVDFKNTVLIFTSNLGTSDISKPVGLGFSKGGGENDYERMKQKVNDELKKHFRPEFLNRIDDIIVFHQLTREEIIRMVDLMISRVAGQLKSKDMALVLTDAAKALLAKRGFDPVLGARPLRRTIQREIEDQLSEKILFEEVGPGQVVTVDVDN
UniProt P9WPC9, 114-848, stated change not applied: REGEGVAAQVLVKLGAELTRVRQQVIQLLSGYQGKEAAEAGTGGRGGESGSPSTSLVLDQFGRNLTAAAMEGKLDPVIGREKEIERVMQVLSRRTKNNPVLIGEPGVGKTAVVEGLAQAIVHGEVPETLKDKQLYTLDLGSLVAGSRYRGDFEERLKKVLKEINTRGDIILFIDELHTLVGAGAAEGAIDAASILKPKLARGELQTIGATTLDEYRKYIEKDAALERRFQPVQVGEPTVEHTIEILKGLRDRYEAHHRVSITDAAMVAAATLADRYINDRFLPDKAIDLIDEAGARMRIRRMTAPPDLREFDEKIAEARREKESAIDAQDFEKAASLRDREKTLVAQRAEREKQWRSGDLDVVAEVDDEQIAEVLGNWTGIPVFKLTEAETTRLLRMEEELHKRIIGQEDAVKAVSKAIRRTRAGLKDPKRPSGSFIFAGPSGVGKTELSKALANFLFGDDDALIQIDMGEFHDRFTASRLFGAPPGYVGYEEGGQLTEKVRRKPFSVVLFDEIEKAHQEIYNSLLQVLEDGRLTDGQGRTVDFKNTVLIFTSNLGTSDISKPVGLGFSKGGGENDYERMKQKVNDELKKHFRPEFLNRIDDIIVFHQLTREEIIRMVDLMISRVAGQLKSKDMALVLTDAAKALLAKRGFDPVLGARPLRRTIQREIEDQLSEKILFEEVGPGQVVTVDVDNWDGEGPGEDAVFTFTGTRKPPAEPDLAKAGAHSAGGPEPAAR

Test [2] deals with ClpC1–670 (Δ671–848 aa) (Mycobacterium tuberculosis H37Rv) (UniProt P9WPC9). In words: SEC; Superdex-200 (1×30 cm) in buffer A (50 mM Tris-HCl pH 7.6, 100 mM KCl, 5 mM DTT, 10% glycerol, 0.01% Triton X-100) with 15 mM ATP and 10 mM MgCl2; protein pre-incubated with 15 mM ATP and 10 mM MgCl2 for 30 min at 25°C; monomer to hexamer; fractions checked by SDS-PAGE; both purified.
Test [3] has as its target ClpC1–704 (Δ705–848 aa) (Mycobacterium tuberculosis H37Rv) (UniProt P9WPC9). The test is described as above.
The target in test [4] is ClpC1–721 (Δ722–848 aa) (Mycobacterium tuberculosis H37Rv) (UniProt P9WPC9). Described as above.
Test [5] has as its target ClpC1–746 (Δ747–848 aa) (Mycobacterium tuberculosis H37Rv) (UniProt P9WPC9). In words: SEC; Superdex-200 (1×30 cm) in buffer A (50 mM Tris-HCl pH 7.6, 100 mM KCl, 5 mM DTT, 10% glycerol, 0.01% Triton X-100), in the absence of ATP and MgCl2; fractions checked by SDS-PAGE; both purified.
The target in test [6] is ClpC1–766 (Δ767–848 aa) (Mycobacterium tuberculosis H37Rv) (UniProt P9WPC9). The description is as above.
The target of test [7] is ClpC1–786 (Δ787–848 aa) (Mycobacterium tuberculosis H37Rv) (UniProt P9WPC9). The test is described as above.
The target of test [8] is ClpC1–806 (Δ807–848 aa) (Mycobacterium tuberculosis H37Rv) (UniProt P9WPC9). The description is as above.

These results are taken from publication PMC3527473, “The C-Terminus of ClpC1 of Mycobacterium tuberculosis Is Crucial for Its Oligomerization and Function” (PLoS ONE, 2012).

No constants are given. Whether binding was seen depends on the method and setting.

Take “ClpC1-Δ3 (N-terminal truncated mutant, both N-terminal domains deleted) (from UniProt P9WPC9 114-848) (domain or fragment)”: the binding entry in test [1] is recorded as “no binding (condition: in the absence of ATP)”.

Consider “ClpC1–670 (Δ671–848 aa) (from UniProt P9WPC9 1-670) (domain or fragment)”, for which the binding result in test [2] is “no binding”. For “ClpC1–704 (Δ705–848 aa) (from UniProt P9WPC9 1-704) (domain or fragment)”, the binding result in test [3] was “no binding”. For the substance “ClpC1–721 (Δ722–848 aa) (from UniProt P9WPC9 1-721) (domain or fragment)”, in test [4], the binding result is listed as “no binding”.

“ClpC1–746 (Δ747–848 aa) (from UniProt P9WPC9 1-746) (domain or fragment)”: the binding result in test [5] is given as “no binding (condition: in the absence of ATP)”.

Consider “ClpC1–766 (Δ767–848 aa) (from UniProt P9WPC9 1-766) (domain or fragment)”, for which the binding entry in test [6] was “no binding (condition: in the absence of ATP)”. With “ClpC1–786 (Δ787–848 aa) (from UniProt P9WPC9 1-786) (domain or fragment)”, in test [7], the binding result was “no binding (condition: in the absence of ATP)”.

With “ClpC1–806 (Δ807–848 aa) (from UniProt P9WPC9 1-806) (domain or fragment)”, in test [8], the binding result is reported as “no binding (condition: in the absence of ATP)”.
